Values of other authors, collected in US10293050B2, “Macrolide dosage forms” (Micell Technologies, Inc., priority 2010, dated 2019).
At least one structure is not confirmed: it was looked up by name or label, or the drawing left a doubt.

Tested on: cardiac allograft
Conditions: oral dose 4.9 mg/kg/day

In the case of `CO[C@H]1C[C@@H]2CC[C@@H](C)[C@@](O)(O2)C(=O)C(=O)N2CCCC[C@H]2C(=O)O[C@H]([C@H](C)C[C@@H]2CC[C@@H](O)[C@H](OC)C2)CC(=O)[C@H](C)/C=C(\C)[C@@H](O)[C@@H](OC)C(=O)[C@H](C)C[C@H](C)/C=C/C=C/C=C/1C` [Rapamycin], the prolonged allograft survival is given as 70 % of rats treated.
